This list holds what a sample rich in targets with a hit left over. This is a noisy data set. The list shows a part of the results, in another mix than the full data.
These targets were tested with COC(=O)/C=C/c1ccccc1 [methyl cinnamate] (assay: log2 ratio of iodoacetamide-alkyne labeling of the cysteine site, DMSO over compound (competition); higher = stronger covalent engagement of the cysteine by the compound, active = 1 or more). Details: 500 µM; treatment time 1 h; system: HEK293T cell lysate.
Summary of the method: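 HEK293T lysate at 2 mg/mL was treated with vehicle or electrophile (500 µM) for 1 h at ambient temperature, then labelled with iodoacetamide alkyne (1 h), clicked to sCIP-TMT reagents, pooled, digested with trypsin overnight at 37 °C, enriched on streptavidin and eluted with acid. Peptides were analysed by Orbitrap Eclipse LC-MS/MS with FAIMS and quantified in FragPipe, using duplicate channels and three replicates, with cysteines quantified in only one replicate excluded. The log2 competition ratio for each cysteine is the mean control-channel reporter intensity divided by the mean compound-channel reporter intensity.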
With UniProt Q9BPX6_C83 the “log2 ratio of iodoacetamide-alkyne labeling” value (“log2 ratio” below) was inactive: 0.437. PGAM5 C168 (UniProt Q96HS1) was tested, and the “log2 ratio” value was inactive: 0.18. With CPNE1 C53 (UniProt Q99829) the “log2 ratio” value was inactive: 0.157. In the case of VRK1 C220 (UniProt Q99986), the “log2 ratio” value is reported as inactive: 0.165. In the case of ZFR C844 (UniProt Q96KR1), the “log2 ratio” value is reported as inactive: 0.00449. For NUDCD1 C7 (UniProt Q96RS6), the “log2 ratio” value was inactive: -0.465. SCYL1 C309 (UniProt Q96KG9) was tested, and the “log2 ratio” value was inactive: 0.117. For L3MBTL3 C515 (UniProt Q96JM7), the “log2 ratio” value was inactive: -0.18. In the case of STRBP C195 (UniProt Q96SI9), the “log2 ratio” value is reported as inactive: 0.109. With TMEM209 C301 (UniProt Q96SK2) the “log2 ratio” value was inactive: 0.288. For VAT1 C86 (UniProt Q99536), the “log2 ratio” value was inactive: 0.294. With PARK7 C106 (UniProt Q99497) the “log2 ratio” value was inactive: 0.181. With TTC1 C66 (UniProt Q99614) the “log2 ratio” value was inactive: 0.382. For SH3GL1 C96 (UniProt Q99961), the “log2 ratio” value was inactive: 0.232. NSUN5 C308 (UniProt Q96P11) was tested, and the “log2 ratio” value was inactive: 0.142. With UHRF1 C410 (UniProt Q96T88) the “log2 ratio” value was inactive: 0.0635. With GRWD1 C299 (UniProt Q9BQ67) the “log2 ratio” value was active: 1.02. In the case of MACROD1 C116 (UniProt Q9BQ69), the “log2 ratio” value is reported as inactive: 0.131. RUFY1 C603 (UniProt Q96T51) was tested, and the “log2 ratio” value was inactive: -0.0926. STRBP C40 (UniProt Q96SI9) was tested, and the “log2 ratio” value was inactive: -0.129. With TTC1 C8 (UniProt Q99614) the “log2 ratio” value was inactive: -0.0165. For RUFY1 C351 (UniProt Q96T51), the “log2 ratio” value was inactive: 0.476. With WDR24 C587 (UniProt Q96S15) the “log2 ratio” value was inactive: -0.061. In the case of ZFR C5 (UniProt Q96KR1), the “log2 ratio” value is reported as inactive: 0.0688. For CCT7 C326 (UniProt Q99832), the “log2 ratio” value was inactive: 0.129. With FBXL18 C423 (UniProt Q96ME1) the “log2 ratio” value was inactive: 0.0962. For RSF1 C650 (UniProt Q96T23), the “log2 ratio” value was inactive: 0.492. For SPAG5 C822 (UniProt Q96R06), the “log2 ratio” value was inactive: -0.011. With NCAPG C202 (UniProt Q9BPX3) the “log2 ratio” value was inactive: 0.0262. For ITCH C57 (UniProt Q96J02), the “log2 ratio” value was inactive: 0.398. In the case of UIMC1 C601 (UniProt Q96RL1), the “log2 ratio” value is reported as inactive: 0.529. For EHMT2 C1175 (UniProt Q96KQ7), the “log2 ratio” value was inactive: 0.0165. HSD17B10 C214 (UniProt Q99714) was tested, and the “log2 ratio” value was inactive: 0.282. In the case of VCPIP1 C160 (UniProt Q96JH7), the “log2 ratio” value is reported as inactive: 0.376. In the case of TTC1 C149 (UniProt Q99614), the “log2 ratio” value is reported as inactive: 0.162. With ELAC2 C441 (UniProt Q9BQ52) the “log2 ratio” value was inactive: -0.102. With PYURF C60 (UniProt Q96I23) the “log2 ratio” value was inactive: 0.311.
